Data taken from PubChem BioAssay AID624291 (National Center for Advancing Translational Sciences (NCATS), 2012).
“And” between values parts separate entries of the source, which are not always exact repeats. Equal entries are not always repeated. The whole screen tested about 350,000 compounds, of which about 220 (0.063%) were called active. Inconclusive means that the source gave no clear call. Such entries were picked first, then a sample of the others. Calls follow the shape of the dose curve; as a rule, active = well fitted activation curve with a large enough effect; inconclusive = small, poorly fitted or top-dose-only effect; inactive = no such curve, though single readings can be large or run the other way. Potencies of inconclusive entries are doubtful fits and often do not repeat.

Experiment: qHTS for Activators of Integrin-Mediated Alleviation for Muscular Dystrophy; also: nearly all actives have a fitted effect of over 60% in size;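 as to activation: 100% = response of the positive control SU9516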
Details: alpha7betagal myoblasts, beta-gal FDG fluorescence, 48 h; activation: at 38.3 µM (top of the series)
Procedure, shortened: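 alpha7betagal+/- myoblasts (passage 13, 250/well) treated 48 h at 37C with compounds at 1:260 dilution of DMSO stock. Lysed, then beta-galactosidase activity read as FDG fluorescence (ex 480/em 540) after 30 min, with pre-read for autofluorescence.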
Potency is read from the fitted curve at half-maximal effect.

Row | SMILES | activation | Potency
1 | Cc1ccccc1C(=O)NNC(=S)NC(=O)c1cccs1 | inactive: -14% | 
2 | CCCC(=O)Nc1ccc(S(=O)(=O)N2CCc3ccccc32)cc1 | inactive: -15.6% | 
3 | Cc1ccc(S(=O)(=O)N(CC(=O)NCc2ccco2)C2CCCCC2)cc1 |  | inconclusive: 5.01 µM [activator, single point]
4 | Cc1[nH]n(-c2cccc(Cl)c2)c(=O)c1C=NCC(C)C |  | inconclusive: 0.501 µM [activator, full curve, poor fit]
5 | S=C(NCc1ccc2[nH]c3c(c2c1)CCCC3)Nc1ccccc1Cl | inactive: 19% | 
6 | COc1ccccc1NC(=S)N(Cc1ccc(C)cc1)Cc1cccnc1 |  | inconclusive: 2.51 µM [activator, full curve, poor fit]
7 | CCCC(=O)NC(=S)Nc1nc(-c2ccc(OC)cc2)cs1 | inactive: -10.7% | 
8 | S=C1NC[C@H](Cc2ccccc2)N1CCCCC1CCCCC1 | inactive: -29.9% | 
9 | Cc1cccc2[nH]c(-c3ccc(NC(=O)c4ccco4)cc3)nc12 | inactive: -15.6% | 
10 | CN(C)C=Nc1ncc2c([nH]c3ccccc32)c1C#N |  | inconclusive: 7.94 µM [activator, partial curve, poor fit]
11 | OC(COc1ccc2c(c1)OCO2)CN1CCCCC1 (configuration not stated) | inactive: 4.45% | 
12 | COc1cc(NC(=S)N2CCN(C)CC2)c(OC)cc1Cl |  | inconclusive: 2.51 µM [activator, single point]
13 | O=C(C1CCCN(Cc2ccc([N+](=O)[O-])cc2)C1)N1CCCCC1 (configuration not stated) | inactive: -16.5% | 
14 | CCN(C(=O)CN1CCCCC1)c1c(N)n(Cc2ccccc2)c(=O)[nH]c1=O |  | inconclusive: 5.01 µM [activator, single point]
15 | CCCn1nc(C(=O)Nc2ccc3c(c2)OCO3)c2ccccc2c1=O |  | inconclusive: 1.58 µM [activator, partial curve, poor fit]
16 | CC(C)c1c(O)nc(SCc2ccc(F)cc2)[nH]c1=O | inactive: 38% | 
17 | CC(C)(C)OC(=O)N1Cc2ccccc2C[C@H]1C(=O)NC1CCCC1 |  | inconclusive: 28.2 µM [activator, single point]
18 | Cc1ccc(NS(=O)(=O)c2c(C)[nH]c(C)c2C(=O)N2CCCCC2)cc1F |  | inconclusive: 2.82 µM [activator, partial curve, poor fit]
19 | O=C(Nc1ccc2oc(-c3ccncc3)nc2c1)c1ccc(Br)o1 |  | inconclusive: 28.2 µM [activator, single point]
20 | CCc1ccc(NC(=O)C2CCCN(S(=O)(=O)c3ccc4c(c3)CCCN4C(C)=O)C2)cc1 (configuration not stated) |  | inconclusive: 4.47 µM [activator, single point]
21 | O=C1C(Nc2ccccc2)=C(NS(=O)(=O)c2ccccc2)C(=O)c2ccccc21 |  | inconclusive: 28.2 µM [activator, single point]
22 | Cc1cccn2c(=O)c3cc(S(=O)(=O)c4ccc(Br)cc4)c(=N)n(C4CCCCC4)c3nc12 |  | inconclusive: 11.2 µM [activator, partial curve, poor fit]
23 | Cc1ccc(S(=O)(=O)N2[C@@H](c3ccc(Cl)cc3)C(C(=O)O)=CC[C@H]2c2ccc(C(C)C)cc2)cc1 | inactive: 3.08% | 

Row | SMILES | activation | Potency
24 | O=C(COc1ncnc2c(Cl)cc(Cl)cc12)NC1CCCCCC1 |  | inconclusive: 5.01 µM [activator, single point]
25 | CC1=C(C(=O)OCc2ccc3c(c2)OCO3)C(c2ccc(Cl)cc2)NC(=O)N1 (configuration not stated) |  | inconclusive: 3.55 µM [activator, full curve, poor fit]
26 | Cc1ccccc1OCCn1cc(C(=O)O)c2ccccc21 |  | inconclusive: 2 µM [activator, partial curve, poor fit]
27 | O=C(N/N=C/c1c[nH]c2ccccc12)c1ccc(Cl)cc1 |  | inconclusive: 5.01 µM [activator, single point]
28 | O=[N+]([O-])c1cccc2nc3ccccc3c(NCCCn3ccnc3[N+](=O)[O-])c12 | inactive: -53.6% | 
29 | COCCN(C(=O)c1ccc(NC2CC2)c([N+](=O)[O-])c1)c1c(N)n(CC(C)C)c(=O)[nH]c1=O |  | inconclusive: 28.2 µM [activator, single point]
30 | Cc1cc(/C=C(/C#N)c2nc3ccccc3[nH]2)c(C)n1-c1ccccc1C(=O)O |  | inconclusive: 3.16 µM [activator, full curve, poor fit]
31 | COc1cc(C(=O)OC2CCOC2=O)c([N+](=O)[O-])cc1OC (configuration not stated) |  | inconclusive: 5.01 µM [activator, single point]
32 | CC(C)(C)NC(=O)C(c1ccc(F)cc1)N(C(=O)CCC(=O)Nc1ccccn1)C1CCCC1 (configuration not stated) |  | inconclusive: 5.01 µM [activator, single point]
33 | CC(=O)N(CCc1cccc(C)c1)Cc1cc2ccc(C)cc2[nH]c1=O |  | inconclusive: 31.6 µM [activator, partial curve, poor fit]
34 | Fc1ccc(-c2nc3ccccc3[nH]2)cc1 |  | inconclusive: 0.631 µM [activator, full curve, poor fit]
35 | Cc1csc2cc(-c3cccc([N+](=O)[O-])c3)c(-c3cccc([N+](=O)[O-])c3)c[n+]12 |  | inconclusive: 6.31 µM [activator, partial curve, poor fit]
36 | O=C(Cc1ccc(Cl)c(Cl)c1)Nc1ccc(S(=O)(=O)Nc2ncccn2)cc1 |  | inconclusive: 2.82 µM [activator, partial curve, poor fit]
37 | Cc1[nH]ccc2c1[nH]c1cc(=O)ccc12 |  | inconclusive: 1.58 µM [activator, full curve, poor fit]
38 | O=C1/C(=C\c2ccco2)SC(=S)N1c1ccc(O)cc1 |  | inconclusive: 14.1 µM [activator, single point]
39 | Cc1ccc(C(=O)NCc2nnc3c(C(F)(F)F)cc(Cl)cn23)o1 | inactive: 12.3% | 
40 | c1ccc(-c2nc3ccccn3c2NCc2ccc3c(c2)OCO3)cc1 | inactive: 5.52% | 
41 | COc1ccc(S(=O)(=O)NCCc2c[nH]c3ccccc23)cc1OC |  | inconclusive: 5.01 µM [activator, single point]
42 | Cn1c(=O)c2[nH]c(SCCN3CCOCC3)nc2n(C)c1=S | inactive: 11.1% | 
43 | N/C(=N\OC(=O)CN1C(=O)c2ccccc2C1=O)c1ccc(Br)cc1 |  | inconclusive: 12.6 µM [activator, single point]
44 | O=C(CSc1nnc(Cc2ccccc2)o1)N1CCCc2ccccc21 | inactive: 0% | 
45 | O=C(c1ccc(COCC(F)(F)F)cc1)N1CCN(c2ccccn2)CC1 |  | inconclusive: 4.47 µM [activator, single point]
46 | COc1ccc(-c2ccc(=O)n(Cc3ccccc3)n2)cc1 |  | inconclusive: 5.01 µM [activator, single point]

Row | SMILES | activation | Potency
47 | CCn1c(SCC(=O)Nc2ccc(F)cc2)nnc1-c1cnccn1 |  | inconclusive: 3.16 µM [activator, single point]
48 | O=C(CCCn1c(=S)[nH]c2cc3c(cc2c1=O)OCO3)NC1CC1 | inactive: 0% | 
49 | CCOc1ccc(-n2cc(C(=O)N3CCCCCC3)c3cc(OC)c(OC)cc3c2=O)cc1 |  | inconclusive: 3.16 µM [activator, full curve, poor fit]
50 | CCN1CCCC1CN(Cc1cc2ccc(C)cc2[nH]c1=O)C(=S)Nc1ccc(OC)cc1OC (configuration not stated) |  | inconclusive: 14.1 µM [activator, partial curve, poor fit]
51 | C=CCN(CC=C)C(=S)Nc1ccc2nsnc2c1 | inactive: -14% | 
52 | CCC(C)[C@H](NC(=O)NCCCOC(C)C)C(=O)OC (some centres not stated) |  | inconclusive: 5.01 µM [activator, single point]
53 | Cc1cc(OC(C)C(=O)NCCCn2ccnc2)c2c(C)cc(=O)oc2c1 (configuration not stated) |  | inconclusive: 1.78 µM [activator, partial curve, poor fit]
54 | O=c1c(C=NCCCO)c(-c2ccccc2)[nH]n1-c1nc2ccccc2s1 |  | inconclusive: 6.31 µM [activator, partial curve, poor fit]
55 | CS(=O)(=O)N(Cc1ccccc1)c1ccc(C(=O)N2CCN(c3cccc(Cl)c3)CC2)cc1 | inactive: -29.9% | 
56 | O=C(Cc1cc(=O)[nH][nH]1)N/N=C/c1c(Cl)cccc1Cl |  | inconclusive: 28.2 µM [activator, single point] and inconclusive: 11.2 µM [activator, single point]
57 | COc1c(C)cccc1C(=O)Nc1ccc(N2CCOCC2)c(Cl)c1 | inactive: 2.04% | 
58 | Nc1ccc(C(=O)N/N=C/c2cn(Cc3ccc(F)cc3)c3ccccc23)cc1 |  | inconclusive: 28.2 µM [activator, single point]
59 | CCS(=O)(=O)N1CCC(C(=O)NCc2ccc(OC)cc2)CC1 |  | inconclusive: 5.01 µM [activator, partial curve]
60 | CC1C(=O)C(C)C(c2cc(Cl)ccc2O)NC1c1cc(Cl)ccc1O (configuration not stated) | inactive: -69.4% | 
61 | Cc1cccc(NC(=O)CSc2ccc(-c3cccnc3)nn2)c1 |  | inconclusive: 5.01 µM [activator, single point]
62 | O=C(NCc1ccco1)C1CCCN(S(=O)(=O)c2cc(Cl)ccc2Cl)C1 (configuration not stated) |  | inconclusive: 3.55 µM [activator, single point]
63 | CCOc1cc(C(=O)Nc2ccc(C)cc2C)ccc1OCC(=O)N1CCCCC1 |  | inconclusive: 0.398 µM [activator, partial curve, poor fit]
64 | c1ccc(CNc2ncnc3sccc23)cc1 |  | inconclusive: 5.01 µM [activator, single point]
65 | CN(C)S(=O)(=O)c1cccc(NC(=O)c2cccc(S(=O)(=O)N3CCCCC3)c2)c1 | inactive: -13.1% | 
66 | COc1cccc(-c2nnc(Nc3nc4c(F)cccc4s3)o2)c1 | inactive: -43.5% | 
67 | Cc1ccc(OCC(=O)Nc2ccc(Cl)cc2)c(-n2nc3ccccc3n2)c1 |  | inconclusive: 11.2 µM [activator, single point]

Quoted from the listing.
Entry for c1ccc(CNc2ncnc3sccc23)cc1 under Potency: inconclusive: 5.01 µM [activator, single point]
Entry for CCn1c(SCC(=O)Nc2ccc(F)cc2)nnc1-c1cnccn1 under Potency: inconclusive: 3.16 µM [activator, single point]
Entry for CCOc1cc(C(=O)Nc2ccc(C)cc2C)ccc1OCC(=O)N1CCCCC1 under Potency: inconclusive: 0.398 µM [activator, partial curve, poor fit]
Entry for Nc1ccc(C(=O)N/N=C/c2cn(Cc3ccc(F)cc3)c3ccccc23)cc1 under Potency: inconclusive: 28.2 µM [activator, single point]
Entry for COc1cccc(-c2nnc(Nc3nc4c(F)cccc4s3)o2)c1 under activation: inactive: -43.5%
